# Results as given in PubChem BioAssay AID1347075 (National Center for Advancing Translational Sciences (NCATS), 2019).
# The whole screen tested about 400,000 compounds, of which about 5,500 (1.4%) were called active. The shares of active, inactive and inconclusive entries below differ from those in the screen. Calls come from the whole dose curve; as a rule, active = well fitted cell-killing curve with a large enough effect; inconclusive = small, poorly fitted or top-dose-only effect, or effect the other way; inactive = flat fitted curve, though single readings scatter. A potency beside an inconclusive call is a rough fit, not a confirmed value.
# Assay: qHTS assay for MDR1-selective chemotherapeutics: Primary screen using the parental adenocarcinoma cell KB-3-1; note: nearly all actives have a fitted effect of over 60% in size
# Settings: KB-3-1 viability, CellTiter-Glo ATP luminescence, 72 h; activity change, negative = cytotoxic: at 46.1 µM (top of the series)
# Method in brief: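 Cytotoxicity in the drug-sensitive parental line KB-3-1 was scored as loss of CellTiter-Glo luminescence following 72 h incubation with compound. Values come from curve fitting of normalized concentration-response data.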
# % is set by controls: 0 for no effect and ±100 for the full control effect; potency is the fitted concentration of half-maximal effect.
Structure (SMILES),Potency,"activity change, negative = cytotoxic"
COc1ccc(CN(C(=O)Nc2cccc(Cl)c2)c2ccccn2)cc1OC,"inconclusive: 29.1 µM [cytotoxic, single point]",
Nc1cccc(/C=C/c2ccnc3ccccc23)c1,"inconclusive: 29.1 µM [cytotoxic, single point]",
COc1ccc(C(=O)c2ccc(CC#N)s2)cc1,"inconclusive: 29.1 µM [cytotoxic, single point]",
CCCCCCCCN1C(=O)[C@H](CC(=O)N2CCCCC2)C[C@@]2(C(=O)OCC)CCCC=C12,"inconclusive: 18.4 µM [cytotoxic, single point]",
O=C(Nc1ccc(O)c(-c2nc3ccccc3o2)c1)C1(c2ccccc2)CCCC1,"inconclusive: 8.2 µM [cytotoxic, partial curve, poor fit]",
COc1cc(NC(=S)NC(=O)c2ccccc2C)ccc1NC(=O)c1cccs1,,inactive: 1.57%
O=c1c(-c2nnc(SCc3ccc(Cl)cc3Cl)o2)cccn1Cc1ccccc1,"inconclusive: 20.6 µM [cytotoxic, single point]",
C[C@@H]1CN([C@@H](C)CO)C(=O)c2cc(C#Cc3ccccc3)cnc2O[C@H]1CN(C)C(=O)c1ccccc1F,,inactive: 0.736%
CCC(=Nc1ccc(Cc2ccncc2)cc1)c1c(O)n(C)c(=O)n(C)c1=O,,inactive: 2.37%
CCCSc1nnc(Sc2nnnn2-c2ccccc2)s1,active: 5.17 µM,
Cc1ccc(NS(=O)(=O)c2ccc3c(c2)NC(=O)C(C)C(=O)N3)c(Cl)c1 (stereo not drawn),"inconclusive: 18.4 µM [cytotoxic, single point]",
Cc1nc2c(-c3ccccc3)c(C)[nH]n2c(=O)c1Cc1ccccc1,"inconclusive: 29.1 µM [cytotoxic, single point]",
CCN(CC)CCN(C(=O)c1ccc(S(=O)(=O)N(C)C2CCCCC2)cc1)c1nc2c(C)cccc2s1,"inconclusive: 29.1 µM [cytotoxic, partial curve, poor fit]",
Cc1nc(N)[nH]c(=O)c1CCCNc1ccc([N+](=O)[O-])cc1,,inactive: 24.5%
Nc1ncnc(N2CCOCC2)n1,,inactive: 18.1%
COc1ccc(C(=O)Nc2nc3c(s2)CCCC3)cc1S(=O)(=O)N1CCCc2ccccc21,"inconclusive: 7.31 µM [cytotoxic, partial curve, poor fit]",
CCOc1ccc2c(C)c(Cl)c(=O)oc2c1,,inactive: -19%
CC(C)c1ccc(NC(=O)c2ccc(F)c(S(=O)(=O)N3CCc4ccccc4C3)c2)cc1,,inactive: -24.5%
CC(=O)c1ccc2c(c1)C1C=CCC1C(c1cc3c(cc1Br)OCO3)N2 (stereo not drawn),active: 5.8 µM,
O=C(Nc1ccc(N2CCN(C(=O)c3cccs3)CC2)cc1)c1ccccc1F,"inconclusive: 20.6 µM [cytotoxic, single point]",
Cc1nnc2n1N=CC=C(c1ccccc1)S2,"inconclusive: 35.5 µM [cytotoxic, single point]",
NC(=O)c1cccc(-c2ccnc3c2CC(C(=O)NCc2cccc(Cl)c2)O3)c1 (stereo not drawn),"inconclusive: 29.1 µM [cytotoxic, partial curve, poor fit]",
O=C(CN1c2ccccc2Sc2ccccc21)NNC(=O)Nc1cccc(Cl)c1,"inconclusive: 25.9 µM [cytotoxic, partial curve, poor fit]",
Cn1c(=O)c2c(O)c(Cc3ccccc3)c(=O)[nH]c2n(C)c1=O,"inconclusive: 0.206 µM [rising, full curve]",
C=C(c1ccccc1Cl)[n+]1ccccc1,"inconclusive: 14.6 µM [cytotoxic, partial curve]",

Structure (SMILES),Potency,"activity change, negative = cytotoxic"
O=C(COC(=O)CNC(=O)C1CCCCC1)Nc1ccc2c(c1)OCCO2,,inactive: 0.589%
Cc1cc(NC(=O)CS(=O)(=O)c2cn(Cc3ccc(F)cc3)c3ccccc23)no1,"inconclusive: 9.2 µM [cytotoxic, partial curve, poor fit]",
CCN(CC)S(=O)(=O)c1ccc(NC(=O)Cn2cnc3ccccc3c2=O)cc1,"inconclusive: 13 µM [rising, single point]",
O=C(NC(c1ccc(Cl)cc1)c1ccccn1)C1CCN(CCOc2ccc(Cl)cc2Cl)CC1 (stereo not drawn),"inconclusive: 29.1 µM [cytotoxic, single point]",
CC(O)(CS(=O)(=O)Cc1ccccc1Cl)C(=O)Nc1cccc(C(F)(F)F)c1 (stereo not drawn),,inactive: -17.9%
CCn1c(SCC(=O)N2CCCc3ccccc32)nc2c(c1=O)SC(C)C2 (stereo not drawn),,inactive: -18.5%
O=C(CC[C@H]1O[C@@H](n2cnc3c(NC(=O)c4ccccc4)ncnc32)[C@H](O)[C@@H]1O)NCC(F)(F)F,,inconclusive: -0.0532%
COc1cc2c(cc1OC)C(c1ccccc1C)CC(=O)N2 (stereo not drawn),,inactive: 9.41%
Cc1cc(C(=O)O)oc(=O)c1,,inactive: 2.21%
O=C(c1cc2cc(Br)ccc2o1)N1CCCC1,,inactive: 0.463%
Cc1ccc(NC(=O)CCSc2nc(-c3ccco3)cc(C(F)(F)F)n2)cc1F,,inactive: -2.6%
CCN(CC(=O)Nc1c(F)cccc1F)C(=O)CCNC(=O)c1ccco1,,inactive: 10.3%
CC(C)[C@H](N)c1nnc(SCc2ccc(Cl)cc2)o1,,inactive: -1.48%
O=C(Nc1nc(-c2ccccc2)cs1)C1CCCCN1S(=O)(=O)c1ccccc1 (stereo not drawn),,inactive: -10.3%
CC1=C(C(=O)N2CCOCC2)CC(CC(=O)NC(c2ccccc2)c2ccccc2)C(=O)N1CCCN1CCCC1=O (stereo not drawn),,inactive: 4.72%
CN(Cc1ccccc1)C(=O)CCC1CCN(C(=O)CCC(F)(F)F)CC1,"inconclusive: 5.17 µM [rising, full curve]",
CS(=O)(=O)N(Cc1nc(-c2ccc(F)cc2)no1)c1ccccc1Cl,,inactive: -2.55%
COc1ccc(O)c(/C=N/NC(=O)c2cccc(N3CCCC3=O)c2)c1,"inconclusive: 13 µM [cytotoxic, partial curve]",
Cc1nn(-c2ccccc2)c(C)c1NC(=O)COc1ccc(Br)cc1Cl,active: 14.6 µM,
COc1ccccc1CCC(=O)Nc1ncc(C)s1,"inconclusive: 16.4 µM [cytotoxic, partial curve, poor fit]",
COc1ccc(C)cc1Nc1n[n+](-c2ccccc2)c(-c2c(Cl)cccc2Cl)s1,"inconclusive: 29.1 µM [cytotoxic, single point]",
CC(C)C(NC(=O)C(c1ccccc1)c1ccccc1)c1nc2ccccc2[nH]1 (stereo not drawn),"inconclusive: 29.1 µM [cytotoxic, single point]",
C1=Cc2ccccc2/C1=C(\Cc1ccncc1)Oc1ccncc1,,inconclusive: -36%
CN(C(=O)COC(=O)c1ccc(Cl)c(S(=O)(=O)N2CCCCC2)c1)C1(C#N)CCCCC1,,inactive: 0%
CCOC(=O)c1[nH]cnc1C(=O)Nc1cccc(N)n1,"inconclusive: 8.2 µM [rising, partial curve, poor fit]",

Structure (SMILES),Potency,"activity change, negative = cytotoxic"
COc1ccccc1CNc1nc(Nc2ccc(C)cc2C)c2sccc2n1,"inconclusive: 29.1 µM [cytotoxic, single point]",
CCCNC(=O)Cn1sc2nc(C)cc(C)c2c1=O,"inconclusive: 29.1 µM [cytotoxic, partial curve, poor fit]",
O=C(CSc1c(Cl)cccc1Cl)N1CCC(c2nc3ccccc3s2)CC1,"inconclusive: 29.1 µM [cytotoxic, single point]",
CC(C)c1ccc(NC(=O)c2ccc(NC3=NC4CS(=O)(=O)CC4S3)cc2)cc1 (stereo not drawn),"inconclusive: 0.146 µM [cytotoxic, full curve]",
CCc1ccccc1NC(=O)Cn1nc(C(F)(F)F)c2c1CCCC2,,inactive: -22.4%
O=C(CCN1CCN(c2ccccc2F)CC1)Nc1cccc(F)c1,"inconclusive: 20.6 µM [cytotoxic, partial curve, poor fit]",
Cc1cc(-c2ccc(C(C)C)c(S(=O)(=O)N3CCN(c4ccccc4)CC3)c2)on1,active: 5.8 µM,
CC(=O)OCC1=C(C(=O)O)N2C(=O)C(NC(=O)CCn3nc(C)c(Cl)c3C)C2SC1 (stereo not drawn),,inactive: 8.33%
Cc1nnc(N(C(=O)c2cnccn2)c2ccccc2)s1,"inconclusive: 32.6 µM [cytotoxic, single point]",
Cc1ccc(C)c(OCc2cc(C(=O)N3CCOCC3)no2)c1,,inactive: 2.77%
Cc1cc(Nc2cccc(Cl)c2)nc(NCc2ccccc2)n1,"inconclusive: 14.6 µM [cytotoxic, single point]",
Cc1ccc(-c2cc(-c3cccc(F)c3)n[nH]2)c(O)c1,,inactive: -11.7%
OCCN1CCN(C(c2ccccc2Cl)c2sc3nc(-c4ccco4)nn3c2O)CC1 (stereo not drawn),,inactive: 9.1%
CC(=O)Nc1cc(C(=O)CSc2nnc(C3CC3)n2C2CC2)ccc1O,"inconclusive: 0.0164 µM [rising, full curve]",
CC(Nc1ccc(Br)cc1)C(=O)Nc1cccc(S(=O)(=O)N2CCOCC2)c1 (stereo not drawn),"inconclusive: 32.6 µM [cytotoxic, single point]",
NC(=O)C1CCN(C(=O)c2ccc([N+](=O)[O-])cc2NC(=O)c2cccs2)CC1,"inconclusive: 0.0517 µM [cytotoxic, full curve]",
CCN=C1S/C(=C\c2cc(OCC)c(O)cc2Br)C(=O)N1CC,"inconclusive: 20.6 µM [cytotoxic, single point]",
CC(C)N1C(=O)C(O)(c2c[nH]c3ccccc23)c2ccccc21 (stereo not drawn),,inactive: -19.2%
O=C(NCc1ccc(F)cc1)C(c1ccccc1)N(C(=O)c1csnn1)C1CC1 (stereo not drawn),"inconclusive: 0.731 µM [rising, full curve]",
CCCS(=O)(=O)N1CC(=O)N(c2cc(C)ccc2C)C(C)(C(=O)NC2CCCCCC2)C1 (stereo not drawn),,inactive: 18.4%
CCOc1ccc(CCNC(=O)c2cccc(-n3cnnn3)c2)cc1OCC,,inactive: -1.93%
O=c1[nH]c(SCc2ccc(OC(F)(F)F)cc2)nc2c1CCC2,"inconclusive: 18.4 µM [cytotoxic, partial curve]",
O=C(NC(=S)N1CCN(c2ccc(Cl)cc2[N+](=O)[O-])CC1)c1cccs1,"inconclusive: 25.9 µM [cytotoxic, single point]",

# Grouped by structure, the entries above containing fluorine.
Structure (SMILES),Potency,"activity change, negative = cytotoxic"
C[C@@H]1CN([C@@H](C)CO)C(=O)c2cc(C#Cc3ccccc3)cnc2O[C@H]1CN(C)C(=O)c1ccccc1F,,inactive: 0.736%
CC(C)c1ccc(NC(=O)c2ccc(F)c(S(=O)(=O)N3CCc4ccccc4C3)c2)cc1,,inactive: -24.5%
O=C(Nc1ccc(N2CCN(C(=O)c3cccs3)CC2)cc1)c1ccccc1F,"inconclusive: 20.6 µM [cytotoxic, single point]",
Cc1cc(NC(=O)CS(=O)(=O)c2cn(Cc3ccc(F)cc3)c3ccccc23)no1,"inconclusive: 9.2 µM [cytotoxic, partial curve, poor fit]",
CC(O)(CS(=O)(=O)Cc1ccccc1Cl)C(=O)Nc1cccc(C(F)(F)F)c1 (stereo not drawn),,inactive: -17.9%
O=C(CC[C@H]1O[C@@H](n2cnc3c(NC(=O)c4ccccc4)ncnc32)[C@H](O)[C@@H]1O)NCC(F)(F)F,,inconclusive: -0.0532%
Cc1ccc(NC(=O)CCSc2nc(-c3ccco3)cc(C(F)(F)F)n2)cc1F,,inactive: -2.6%
CCN(CC(=O)Nc1c(F)cccc1F)C(=O)CCNC(=O)c1ccco1,,inactive: 10.3%
CN(Cc1ccccc1)C(=O)CCC1CCN(C(=O)CCC(F)(F)F)CC1,"inconclusive: 5.17 µM [rising, full curve]",
CS(=O)(=O)N(Cc1nc(-c2ccc(F)cc2)no1)c1ccccc1Cl,,inactive: -2.55%
CCc1ccccc1NC(=O)Cn1nc(C(F)(F)F)c2c1CCCC2,,inactive: -22.4%
O=C(CCN1CCN(c2ccccc2F)CC1)Nc1cccc(F)c1,"inconclusive: 20.6 µM [cytotoxic, partial curve, poor fit]",
Cc1ccc(-c2cc(-c3cccc(F)c3)n[nH]2)c(O)c1,,inactive: -11.7%
O=C(NCc1ccc(F)cc1)C(c1ccccc1)N(C(=O)c1csnn1)C1CC1 (stereo not drawn),"inconclusive: 0.731 µM [rising, full curve]",
O=c1[nH]c(SCc2ccc(OC(F)(F)F)cc2)nc2c1CCC2,"inconclusive: 18.4 µM [cytotoxic, partial curve]",
